PubChem BioAssay AID1259405, NCATS – 2018

Test: 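Silenced genes that increase secreted GFP made by CHO cells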 (primary screen)
Cell system: Chinese hamster CHO-K1 ovary cells with stable secreted eGFP expression
Reagents: single siRNA against mouse genes, 0.8 pmol siRNA per well (2 µl of 400 nM stock)
Duration: 3 days
Measurement: 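Per-well intracellular GFP measured by laser scanning cytometry, plus viability from ATP luminescence, each relative to plate median of non-targeting control wells, in %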
Scale: GFP, % of control: higher = more GFP per well, higher productivity; viability (ATP), % of control: higher = more viable cells (more ATP)
Active means: 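a knock-down is called active if GFP reaches 120% or more of non-targeting control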
Shown is a random part of about 50,000 deposited reagents. Over the whole deposit, about 4,000 (8%) were called active. 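Mouse siRNA library applied to hamster cells; one well for each siRNA.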 The numbers tell different reagents against one gene apart.

gene knocked down | reagent | GFP, % of control | viability (ATP), % of control | activity call
Map6d1 (MAP6 domain containing 1) | 1 | 56.5 | 73.1 | inactive
Map6d1 (MAP6 domain containing 1) | 2 | 66.5 | 72.5 | inactive
Map6d1 (MAP6 domain containing 1) | 3 | 88.3 | 57.2 | inactive
Col12a1 (collagen, type XII, alpha 1) | 1 | 71.3 | 156 | inactive
Col12a1 (collagen, type XII, alpha 1) | 2 | 74.4 | 71.1 | inactive
Diras1 (DIRAS family, GTP-binding RAS-like 1) | 1 | 78 | 73.7 | inactive
Diras1 (DIRAS family, GTP-binding RAS-like 1) | 2 | 150 | 111 | active
Diras1 (DIRAS family, GTP-binding RAS-like 1) | 3 | 94.8 | 105 | inactive
Kazald1 (Kazal-type serine peptidase inhibitor domain 1) | 1 | 65.4 | 78.9 | inactive
Kazald1 (Kazal-type serine peptidase inhibitor domain 1) | 2 | 81.2 | 91.8 | inactive
Kazald1 (Kazal-type serine peptidase inhibitor domain 1) | 3 | 101 | 85.8 | inactive
Hspa1l (heat shock protein 1-like) | 1 | 103 | 60.8 | inactive
Hspa1l (heat shock protein 1-like) | 2 | 82.4 | 79.3 | inactive
Hspa1l (heat shock protein 1-like) | 3 | 101 | 113 | inactive
Samd14 (sterile alpha motif domain containing 14) | 1 | 37.5 | 45.9 | inactive
Samd14 (sterile alpha motif domain containing 14) | 2 | 66.6 | 91.1 | inactive
Samd14 (sterile alpha motif domain containing 14) | 3 | 117 | 129 | inactive

The list goes on; the last 4 above are carried over.
gene knocked down | reagent | GFP, % of control | viability (ATP), % of control | activity call
Hspa1l (heat shock protein 1-like) | 3 | 101 | 113 | inactive
Samd14 (sterile alpha motif domain containing 14) | 1 | 37.5 | 45.9 | inactive
Samd14 (sterile alpha motif domain containing 14) | 2 | 66.6 | 91.1 | inactive
Samd14 (sterile alpha motif domain containing 14) | 3 | 117 | 129 | inactive
Or7c70 (olfactory receptor family 7 subfamily C member 70) | 1 | 57.9 | 48.3 | inactive
Or7c70 (olfactory receptor family 7 subfamily C member 70) | 2 | 88.1 | 57.4 | inactive
Or7c70 (olfactory receptor family 7 subfamily C member 70) | 3 | 78 | 84.7 | inactive
Padi3 (peptidyl arginine deiminase, type III) | 1 | 78.6 | 62.7 | inactive
Padi3 (peptidyl arginine deiminase, type III) | 2 | 122 | 128 | active
Padi3 (peptidyl arginine deiminase, type III) | 3 | 65.4 | 56.7 | inactive
Or8g33 (olfactory receptor family 8 subfamily G member 33) | 1 | 90.8 | 64.1 | inactive
Or8g33 (olfactory receptor family 8 subfamily G member 33) | 2 | 42.8 | 29.6 | inactive
Or8g33 (olfactory receptor family 8 subfamily G member 33) | 3 | 74.9 | 95.6 | inactive
Suv39h2 (suppressor of variegation 3-9 2) | 1 | 64.5 | 46.3 | inactive
Suv39h2 (suppressor of variegation 3-9 2) | 2 | 94.5 | 82.5 | inactive
Cse1l (chromosome segregation 1 like) | 1 | 99.2 | 63.7 | inactive
Cse1l (chromosome segregation 1 like) | 2 | 82 | 81.6 | inactive
Cse1l (chromosome segregation 1 like) | 3 | 62.4 | 39.7 | inactive
Mrps26 (mitochondrial ribosomal protein S26) | 1 | 89.1 | 81 | inactive
Mrps26 (mitochondrial ribosomal protein S26) | 2 | 27.5 | 34.4 | inactive
Mrps26 (mitochondrial ribosomal protein S26) | 3 | 77.2 | 76.2 | inactive
